Laboratory results taken from publication PMC12011184 (Acta Naturae, 2025).
Some peptides are written in HELM: one residue between dots, names in brackets for other building blocks, links after the first $.

Assays:
[1] = peptide synthesis; settings: whole synthesis, 220 nm
[2] = Fmoc solid-phase peptide synthesis; settings: whole synthesis, 220 nm

PEPTIDE1{G.W.T.L.N.S.A.G.Y.L.L.G.P.H.A.I.D.N.H.R.S.F.S.D.K.H.G.L.T.[am]}$$$$V2.0
final HPLC purity [1]: 98.10% | final HPLC purity [2]: 98%
